Assay results: US8633207B2, “Quinazoline compounds and methods of use thereof” (Ambit Biosciences Corporation, priority 2010, dated 2014)

Tested on: panel of distinct kinases, typically 359 or 386 kinases
Test: Kinase selectivity score S(10) from competition binding panel
Conditions: number of kinases with inhibition of 90% or greater divided by number of distinct kinases tested
Description: Competition binding assays used herein were developed, validated and performed as described in Fabian et al., Nature Biotechnology 2005, 23, 329-336. Kinases were produced as fusions to T7 phage (See, Fabian et al. or WO04/015142) or alternatively, the kinases were expressed in HEK-293 cells and subsequently tagged with DNA for PCR detection (See, WO08/005,310). For the binding assays, streptavidin-coated magnetic beads were treated with biotinylated affinity ligands for 30 min at rt to generate affinity resins. The liganded beads were blocked with excess biotin and washed with blocking buffer (SeaBlock (Pierce), 1% BSA, 0.05% Tween 20, 1 mM DTT) to remove unbound ligand and to reduce non-specific binding. Binding reactions were assembled by combining kinase, liganded affinity beads, and test compounds in 1× binding buffer (20% SeaBlock, 0.17×PBS, 0.05% Tween 20, 6 mM DTT). Test compounds were prepared as 100× stocks in DMSO and rapidly diluted into the aqueous environment. DMSO was added to control assays lacking a test compound. Primary screen interactions were performed in polypropylene 384-well plates in a final volume of 34 μL, while Kd determinations were performed in polystyrene 96-well plates in a final volume of 135 μL. The assay plates were incubated at room temperature with shaking for 1 hour, long enough for binding reactions to reach equilibrium, and the affinity beads were washed extensively with wash buffer (1×PBS, 0.05% Tween 20) to remove unbound protein. The beads were then resuspended in elution buffer (1×PBS, 0.05% Tween 20, 2 μM non-biotinylated affinity ligand) and incubated at room temperature with shaking for 30 min. The kinase concentration in the eluates was measured by quantitative PCR. Each kinase was tested individually against each compound. Kds were determined using eleven serial threefold dilutions. A selectivity score, which is a quantitative measure of selectivity of a compound against a panel of enzymes, may be calculated for a compound by dividing the number of enzymes for which a compound meets a set criteria, (for example, a binding constant of 100 nM or less), by the total number of enzymes tested.

Row | Compound | S-Score: S(10) at 10 μM
1 | Cc1cc(Nc2nc(C(F)(F)c3ncc(F)cn3)nc3c(Cl)cccc23)n[nH]1 [Example 40, 8-chloro-2-(difluoro(5-fluoropyrimidin-2-yl)methyl)-N-(5-methyl-1H-pyrazol-3-yl)quinazolin-4-amine] | B (0.3 < B ≦ 0.4)
2 | Fc1ccc(C(F)(F)c2nc(Nc3cc[nH]n3)c3ccccc3n2)nc1 [Example 4, 2-(difluoro(5-fluoropyridin-2-yl)methyl)-N-(1H-pyrazol-3-yl)quinazolin-4-amine] | A (A ≦ 0.3)
3 | COc1cccc2c(Nc3cc(C)[nH]n3)nc(C(F)(F)c3ccc(F)cn3)nc12 [Example 43, 2-(difluoro(5-fluoropyridin-2-yl)methyl)-8-methoxy-N-(5-methyl-1H-pyrazol-3-yl)quinazolin-4-amine] | C (0.4 < C ≦ 0.5)
4 | Cc1cc(Nc2nc(C(F)(F)c3ccc(F)cn3)nc3cc(C4CC4)ccc23)n[nH]1 [Example 9, 7-cyclopropyl-2-(difluoro(5-fluoropyridin-2-yl)methyl)-N-(5-methyl-1H-pyrazol-3-yl)quinazolin-4-amine] | C (0.4 < C ≦ 0.5)
5 | COc1ccc2c(Nc3cc(C)[nH]n3)nc(C(F)(F)c3ccc(F)cn3)nc2c1 [Example 6, 2-(difluoro(5-fluoropyridin-2-yl)methyl)-7-methoxy-N-(5-methyl-1H-pyrazol-3-yl)quinazolin-4-amine] | C (0.4 < C ≦ 0.5)
6 | Cc1cc(Nc2nc(C(F)(F)c3ccc(F)cn3)nc3cc(Br)ccc23)n[nH]1 [Example 7, 7-bromo-2-(difluoro(5-fluoropyridin-2-yl)methyl)-N-(5-methyl-1H-pyrazol-3-yl)quinazolin-4-amine] | B (0.3 < B ≦ 0.4)
7 | CC(=O)Nc1cccc2c(Nc3cc(C)[nH]n3)nc(C(F)(F)c3ccc(F)cn3)nc12 [Example 48, N-(2-(difluoro(5-fluoropyridin-2-yl)methyl)-4-((5-methyl-1H-pyrazol-3-yl)amino)quinazolin-8-yl)acetamide] | C (0.4 < C ≦ 0.5)
8 | Cc1cc(Nc2nc(C(F)(F)c3ccc(F)cn3)nc3c(C#N)cccc23)n[nH]1 [Example 35, 2-(difluoro(5-fluoropyridin-2-yl)methyl)-4-((5-methyl-1H-pyrazol-3-yl)amino)quinazoline-8-carbonitrile] | A (A ≦ 0.3)
9 | Cc1cc(Nc2nc(C(F)(F)c3ccc(F)cn3)nc3c(Br)cccc23)n[nH]1 [Example 11, 8-bromo-2-(difluoro(5-fluoropyridin-2-yl)methyl)-N-(5-methyl-1H-pyrazol-3-yl)quinazolin-4-amine] | A (A ≦ 0.3)
10 | Cc1cc(Nc2nc(C(F)(F)c3ccc(F)cn3)nc3c(C(=O)NC4COC4)cccc23)n[nH]1 [Example 45, 2-(difluoro(5-fluoropyridin-2-yl)methyl)-4-((5-methyl-1H-pyrazol-3-yl)amino)-N-(oxetan-3-yl)quinazoline-8-carboxamide] | B (0.3 < B ≦ 0.4)
11 | Cc1cc(Nc2nc(C(F)(F)c3ncc(F)cn3)nc3ccccc23)n[nH]1 [Example 3, 2-(difluoro(5-fluoropyrimidin-2-yl)methyl)-N-(5-methyl-1H-pyrazol-3-yl)quinazolin-4-amine] | D (D > 0.5)
12 | Cc1cc(Nc2nc(C(F)(F)c3ccc(F)cn3)nc3c(C(F)(F)F)cccc23)n[nH]1 [Example 33, 2-(difluoro(5-fluoropyridin-2-yl)methyl)-N-(5-methyl-1H-pyrazol-3-yl)-8-(trifluoromethyl)quinazolin-4-amine] | A (A ≦ 0.3)
13 | Cc1cc(Nc2nc(C(F)(F)c3ccc(F)cn3)nc3c(N4CCOCC4=O)cccc23)n[nH]1 [Example 42, 4-(2-(difluoro(5-fluoropyridin-2-yl)methyl)-4-((5-methyl-1H-pyrazol-3-yl)amino)quinazolin-8-yl)morpholin-3-one] | B (0.3 < B ≦ 0.4)
14 | Cc1cc(Nc2nc(C(F)(F)c3ccc(F)cn3)nc3c(C)cccc23)n[nH]1 [Example 10, 2-(Difluoro(5-fluoropyridin-2-yl)methyl)-8-methyl-N-(5-methyl-1H-pyrazol-3-yl)quinazolin-4-amine] | C (0.4 < C ≦ 0.5)
15 | Cc1cc(Nc2nc(C(F)(F)c3ccc(F)cn3)nc3c(F)cccc23)n[nH]1 [Example 12, 2-(difluoro(5-fluoropyridin-2-yl)methyl)-8-fluoro-N-(3-methyl-1H-pyrazol-5-yl)quinazolin-4-amine] | C (0.4 < C ≦ 0.5)
16 | Cc1cc(Nc2nc(C(F)(F)c3ccc(F)cn3)nc3cc(C(N)=O)ccc23)n[nH]1 [Example 41, 2-(difluoro(5-fluoropyridin-2-yl)methyl)-4-((5-methyl-1H-pyrazol-3-yl)amino)quinazoline-7-carboxamide] | D (D > 0.5)
17 | Cc1cc(Nc2nc(C(F)(F)c3ccc(F)cn3)nc3cc(C#N)ccc23)n[nH]1 [Example 8, 2-(difluoro(5-fluoropyridin-2-yl)methyl)-4-(5-methyl-1H-pyrazol-3-ylamino)quinazoline-7-carbonitrile] | A (A ≦ 0.3)
18 | Cc1cc(Nc2nc(C(F)(F)c3ccc(F)cn3)nc3c([N+](=O)[O-])cccc23)n[nH]1 [Example 49, 2-(difluoro(5-fluoropyridin-2-yl)methyl)-N-(5-methyl-1H-pyrazol-3-yl)-8-nitroquinazolin-4-amine] | A (A ≦ 0.3)
19 | Cc1cc(Nc2nc(C(F)(F)c3ccc(F)cn3)nc3c(C(=O)O)cccc23)n[nH]1 [Example 53, 2-(difluoro(5-fluoropyridin-2-yl)methyl)-4-((5-methyl-1H-pyrazol-3-yl)amino)quinazoline-8-carboxylic acid] | A (A ≦ 0.3)
20 | Cc1cc(Nc2nc(C(F)(F)c3ccc(F)cn3)nc3cc(Cl)ccc23)n[nH]1 [Example 16, 7-chloro-2-(difluoro(5-fluoropyridin-2-yl)methyl)-N-(5-methyl-1H-pyrazol-3-yl)quinazolin-4-amine] | B (0.3 < B ≦ 0.4)
21 | Cc1cc(Nc2nc(C(F)(F)c3ccc(F)cn3)nc3cc(S(C)(=O)=O)ccc23)n[nH]1 [Example 38, 2-(difluoro(5-fluoropyridin-2-yl)methyl)-N-(5-methyl-1H-pyrazol-3-yl)-7-(methylsulfonyl)quinazolin-4-amine] | D (D > 0.5)
22 | Cc1cc(Nc2nc(C(F)(F)c3ccc(F)cn3)nc3c(Cl)cccc23)n[nH]1 [Example 13, 8-chloro-2-(difluoro(5-fluoropyridin-2-yl)methyl)-N-(5-methyl-1H-pyrazol-3-yl)quinazolin-4-amine] | B (0.3 < B ≦ 0.4)
23 | Cc1cc(Nc2nc(C(F)(F)c3ccc(F)cn3)nc3c(OC(F)(F)F)cccc23)n[nH]1 [Example 34, 2-(difluoro(5-fluoropyridin-2-yl)methyl)-N-(5-methyl-1H-pyrazol-3-yl)-8-(trifluoromethoxy)quinazolin-4-amine] | A (A ≦ 0.3)
24 | CCc1cccc2c(Nc3cc(C)[nH]n3)nc(C(F)(F)c3ccc(F)cn3)nc12 [Example 36, 2-(difluoro(5-fluoropyridin-2-yl)methyl)-8-ethyl-N-(5-methyl-1H-pyrazol-3-yl)quinazolin-4-amine] | A (A ≦ 0.3)
25 | COc1cc(Nc2nc(C(F)(F)c3ccc(F)cn3)nc3ccccc23)n[nH]1 [Example 5, 2-(difluoro(5-fluoropyridin-2-yl)methyl)-N-(5-methoxy-1H-pyrazol-3-yl)quinazolin-4-amine] | C (0.4 < C ≦ 0.5)
26 | Cc1cc(Nc2nc(C(F)(F)c3ccc(F)cn3)nc3c(C(N)=O)cccc23)n[nH]1 [Example 39, 2-(difluoro(5-fluoropyridin-2-yl)methyl)-4-((5-methyl-1H-pyrazol-3-yl)amino)quinazoline-8-carboxamide] | C (0.4 < C ≦ 0.5)
27 | Cc1cc(Nc2nc(C(F)(F)c3ccc(F)cn3)nc3c(C4CC4)cccc23)n[nH]1 [Example 51, 8-cyclopropyl-2-(difluoro(5-fluoropyridin-2-yl)methyl)-N-(5-methyl-1H-pyrazol-3-yl)quinazolin-4-amine] | A (A ≦ 0.3)
28 | Cc1cc(Nc2nc(C(F)(F)c3ccc(F)cn3)nc3c(NC=O)cccc23)n[nH]1 [Example 44, N-(2-(difluoro(5-fluoropyridin-2-yl)methyl)-4-((5-methyl-1H-pyrazol-3-yl)amino)quinazolin-8-yl)formamide] | D (D > 0.5)
